Results are given in words; binding and its absence hold for the method and conditions named. Binding seen in cells or lysates may run through a third protein. Some entries that bind do so weakly or less than the wild type.
Columns and labels:
[1] = target: Smad2, endogenous in ATDC5 chondrocyte-like cells (mouse (endogenous in ATDC5)) (UniProt Q62432); assay: co-IP; whole-cell extracts (1 000 μg) of ATDC5 chondrocyte-like cells, endogenous proteins; IP with 3 μg Smad2/3 antibody overnight at 4 °C, protein A/G magnetic beads; western blot with Pinch1 antibody
[2] = target: Smad3, endogenous in ATDC5 chondrocyte-like cells (mouse (endogenous in ATDC5)) (UniProt Q8BUN5); assay: as above

Amino acid sequences for entries named in this document (tags omitted).
UniProt Q62432: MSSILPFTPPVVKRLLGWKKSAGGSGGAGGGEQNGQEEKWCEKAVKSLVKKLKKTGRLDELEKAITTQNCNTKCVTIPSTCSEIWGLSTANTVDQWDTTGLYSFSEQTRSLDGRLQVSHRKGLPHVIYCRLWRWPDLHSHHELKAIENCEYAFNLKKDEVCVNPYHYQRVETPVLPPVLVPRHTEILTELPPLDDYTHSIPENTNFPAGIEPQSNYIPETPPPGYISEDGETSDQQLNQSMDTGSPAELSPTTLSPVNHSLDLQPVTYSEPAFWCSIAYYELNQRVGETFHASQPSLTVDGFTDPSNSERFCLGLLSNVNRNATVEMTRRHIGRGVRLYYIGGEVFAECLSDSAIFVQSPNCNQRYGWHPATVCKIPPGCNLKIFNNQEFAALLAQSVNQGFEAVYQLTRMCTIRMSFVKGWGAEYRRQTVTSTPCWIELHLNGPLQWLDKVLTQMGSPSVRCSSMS
UniProt Q8BUN5: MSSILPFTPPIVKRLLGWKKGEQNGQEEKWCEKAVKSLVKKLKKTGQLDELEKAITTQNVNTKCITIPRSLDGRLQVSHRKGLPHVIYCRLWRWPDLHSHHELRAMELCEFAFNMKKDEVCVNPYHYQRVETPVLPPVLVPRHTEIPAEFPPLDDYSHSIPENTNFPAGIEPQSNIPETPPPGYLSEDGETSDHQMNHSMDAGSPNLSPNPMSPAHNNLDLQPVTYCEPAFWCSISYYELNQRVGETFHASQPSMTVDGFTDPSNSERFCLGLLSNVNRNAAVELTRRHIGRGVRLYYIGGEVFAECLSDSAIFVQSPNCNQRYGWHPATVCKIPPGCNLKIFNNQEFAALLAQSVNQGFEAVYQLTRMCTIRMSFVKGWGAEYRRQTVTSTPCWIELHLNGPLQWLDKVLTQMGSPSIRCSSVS
UniProt Q99JW4: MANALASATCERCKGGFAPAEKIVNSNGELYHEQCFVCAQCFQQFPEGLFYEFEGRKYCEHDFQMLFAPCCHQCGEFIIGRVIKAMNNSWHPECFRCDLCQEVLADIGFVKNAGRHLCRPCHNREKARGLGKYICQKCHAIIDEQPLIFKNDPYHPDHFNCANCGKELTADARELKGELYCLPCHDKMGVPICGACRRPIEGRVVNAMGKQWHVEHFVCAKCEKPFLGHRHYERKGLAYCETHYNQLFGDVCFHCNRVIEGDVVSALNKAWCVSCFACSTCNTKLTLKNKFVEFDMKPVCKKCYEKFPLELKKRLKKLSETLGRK

binding [1]: binds
binding [2]: binds
Substance: Pinch1, endogenous in ATDC5 chondrocyte-like cells (from UniProt Q99JW4 1-325)

Reference: article PMC7553939
